Assay: general procedure: solution-phase peptide synthesis; EDC.HCl/HOBt; DIC/HOBt; OSu and OPfp active esters
Settings: 2 TFA
[1] = late stage modification step, HPLC

In the case of “Boc-D-Phe^1-Pro-Arg-Pro-Gly^5-Gly-Gly-Gly-Asn-Gly^10-OBzl (SEQ ID NO 2)”, the step yield (coupling step) is reported as 76% and the “crude HPLC purity” value (coupling step, HPLC) is reported as 83.4%.
For “Boc-Gly^5-Gly-Gly-Gly-OH.TEA (SEQ ID NO 10)”, the step yield (late stage modification step) was 100% and the “crude HPLC purity” value [1] was 99.6%.
For “Boc-Glu(OBzl)-Glu(OBzl)-Tyr(Bzl)-Leu^20-OBzl (SEQ ID NO 6)”, the “crude HPLC purity” value (coupling step, HPLC) was 92%.
For “Boc-Gly^5-Gly-Gly-Gly-Asn-Gly^10-OBzl (SEQ ID NO 5)”, the step yield (coupling step) was 100% and the “crude HPLC purity” value (coupling step, HPLC) was 97.9%.
With “Boc-D-Phe^1-Pro-Arg-Pro-OH (SEQ ID NO 4)” the “crude HPLC purity” value [1] was 99.4%.
For “Boc-D-Phe^1-Pro-Arg-Pro-Gly^5-Gly-Gly-Gly-Asn-Gly^10-OH (SEQ ID NO 2)”, the “crude HPLC purity” value [1] was 80%.
With “Boc-Glu(OBzl)-Glu(OBzl)-Ile^15-Pro-Glu(OBzl)-Glu(OBzl)-Tyr(Bzl)-Leu^20-OBzl (SEQ ID NO 8)” the step yield (coupling step) was 88% and the “crude HPLC purity” value (coupling step, HPLC) was 90%.
For “H-Phe-Glu(OBzl)-Glu(OBzl)-Ile^15-Pro-Glu(OBzl)-Glu(OBzl)-Tyr(Bzl)-Leu^20-OBzl.TFA (SEQ ID NO 9)”, the step yield (late stage modification step) was 99% and the “crude HPLC purity” value [1] was 86.6%.
In the case of “H-Gly^5-Gly-Gly-Gly-Asn-Gly^10-OBzl.TFA (SEQ ID NO 5)”, the “crude HPLC purity” value [1] is reported as 97.5%.
In the case of “Boc-Phe-Glu(OBzl)-Glu(OBzl)-Ile^15-Pro-Glu(OBzl)-Glu(OBzl)-Tyr(Bzl)-Leu^20-OBzl (SEQ ID NO 9)”, the step yield (coupling step) is reported as 95% and the “crude HPLC purity” value (coupling step, HPLC) is reported as 87.9%.
In the case of “H-D-Phe^1-Pro-Arg-Pro-Gly^5-Gly-Gly-Gly-Asn-Gly^10-Asp-Phe-Glu-Glu-Ile^15-Pro-Glu-Glu-Tyr-Leu^20-OH.2 TFA (Bivalirudin) (SEQ ID NO 1)”, the step yield (late stage modification step) is reported as 78%, the “crude HPLC purity” value [1] is reported as 65% and the “final HPLC purity” value (purification step, HPLC) is reported as 99%. It also gave a step yield (purification step, based on bivalirudin content in the crude peptide) of 70%.
In the case of “Boc-Glu(OBzl)-Glu(OBzl)-Ile^15-Pro-OH.DCHA (SEQ ID NO 7)”, the “crude HPLC purity” value (coupling step, HPLC) is reported as 89%.
For “Boc-D-Phe^1-Pro-Arg-Pro-OBzl.HCl (SEQ ID NO 4)”, the “crude HPLC purity” value (coupling step, HPLC) was 96%.
For “Boc-D-Phe^1-Pro-Arg-Pro-Gly^5-Gly-Gly-Gly-Asn-Gly^10-Asp(OBzl)-Phe-Glu(OBzl)-Glu(OBzl)-Ile^15-Pro-Glu(OBzl)-Glu(OBzl)-Tyr(Bzl)-Leu^20-OBzl (SEQ ID NO 1)”, the step yield (coupling step) was 50% and the “crude HPLC purity” value (coupling step, HPLC) was 81.4%.
In the case of “H-Glu(OBzl)-Glu(OBzl)-Ile^15-Pro-Glu(OBzl)-Glu(OBzl)-Tyr(Bzl)-Leu^20-OBzl.TFA (SEQ ID NO 8)”, the step yield (late stage modification step) is reported as 87% and the “crude HPLC purity” value [1] is reported as 88.9%.
With “H-Glu(OBzl)-Glu(OBzl)-Tyr(Bzl)-Leu^20-OBzl.TFA (SEQ ID NO 6)” the step yield (late stage modification step) was 96% and the “crude HPLC purity” value [1] was 96%.

— patent US8921517 (dated 2014)
